In the supplement of paper PMC10689618:
Counter-ions that a name gives are not always drawn. Some of the results follow. Repeats are few or missing, and single values can be far off.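 Primary human fetal astrocytes engulfed labelled rat cortical synaptosomes, measured as a red/green ratio corrected for calcein live-cell signal and scaled to the plate median. Toxicity meant calcein falling over 30%; decreased phagocytosis meant below 70% of median above 5 µM.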

Legend:
Conditions in all cases: 24 h
[1] = system: Human fetal astrocytes; assay: loss of total cells relative to no-compound high-control median (toxicity); higher = more toxic (fewer cells)
[2] = system: Human fetal astrocytes; assay: as above; remark: listed apart in the source
[3] = system: Human fetal astrocytes; assay: synaptosome phagocytosis (pHrodo/calcein intensity ratio) relative to plate median of data wells; higher = more phagocytosis
[4] = system: Human fetal astrocytes; assay: as above; remark: listed apart in the source

Row | SMILES | loss of total cells ([1]; 1.39 µM) | loss of total cells ([1]; 2.78 µM) | loss of total cells ([1]; 5.56 µM) | loss of total cells ([1]; 11.11 µM) | loss of total cells ([1]; 22.22 µM) | loss of total cells ([2]; 1.39 µM) | loss of total cells ([2]; 2.78 µM) | loss of total cells ([2]; 5.56 µM) | loss of total cells ([2]; 11.11 µM) | loss of total cells ([2]; 22.22 µM) | synaptosome phagocytosis ([3]; 1.39 µM) | synaptosome phagocytosis ([3]; 2.78 µM) | synaptosome phagocytosis ([3]; 5.56 µM) | synaptosome phagocytosis ([3]; 11.11 µM) | synaptosome phagocytosis ([3]; 22.22 µM) | synaptosome phagocytosis ([4]; 1.39 µM) | synaptosome phagocytosis ([4]; 2.78 µM) | synaptosome phagocytosis ([4]; 5.56 µM) | synaptosome phagocytosis ([4]; 11.11 µM) | synaptosome phagocytosis ([4]; 22.22 µM)
1 | O=C(O)Cc1cnc[nH]1 [Imidazole-4-acetic acid hydrochloride] | -3.8% | -12.8% | -4.1% | -13.9% | -5.6% | -1.1% | 16.2% | 24.6% | 1.3% | 14.4% | 108% | 92.4% | 72.1% | 92.1% | 152% | 117% | 115% | 110% | 106% | 137%
2 | COc1cccc(C2(O)CCCCC2CN(C)C)c1 (stereo not given) |  |  |  |  |  | 17.4% | 1.5% | 3.9% | -42.2% | 5.7% | 142% | 98.9% | 113% | 162% | 110% |  |  |  |  | 
3 | N#Cc1c(Cl)c(Cl)c(Cl)c(C#N)c1Cl |  |  |  |  |  | 73.8% | 78.3% | 87.9% | 87.2% | 77.8% | 0% | 0% | 0% | 0% | 0% |  |  |  |  | 
4 | C=CCC1(C(C)CCC)C(=O)NC(=S)NC1=O (stereo not given) |  |  |  |  |  | -15.6% | 13.3% | -19.1% | 13.5% | -6.3% | 91.4% | 139% | 85.9% | 92.3% | 105% |  |  |  |  | 
5 | CC1(C)C2C[C@@H](O)[C@]3(C)C(CC[C@@]4(C)[C@H](c5ccoc5)OC(=O)[C@H]5O[C@]543)[C@@]2(C)[C@@H](O)C[C@H]1O (stereo not given in full) |  |  |  |  |  | 27.2% | -12% | 0% | 52.9% | -1.9% | 119% | 98.9% | 100% | 163% | 95% |  |  |  |  | 
6 | CC[C@H]1CN2CC[C@H]1C[C@H]2[C@H](O)c1ccnc2ccc(OC)cc12 |  |  |  |  |  | 8.3% | 7.6% | 8% | 13.8% | 18.2% | 130% | 66.3% | 67.9% | 94.6% | 113% |  |  |  |  | 
7 | NC(=O)c1ccc(N)nc1 |  |  |  |  |  | -27.9% | -6.9% | 0.7% | 13.5% | -2.2% | 88.2% | 111% | 94% | 83.1% | 79% |  |  |  |  | 
8 | Oc1cc(Cl)ccc1Oc1ccc(Cl)cc1Cl |  |  |  |  |  | -14.5% | -47.6% | 0.6% | 35.1% | 32.1% | 110% | 138% | 103% | 69.3% | 17.7% |  |  |  |  | 
9 | C[N+]1(C)CCCC(OC(=O)C(O)(c2ccccc2)c2ccccc2)C1 (stereo not given) |  |  |  |  |  | 0.9% | -28.8% | 8.4% | -1.4% | -11.9% | 109% | 106% | 108% | 101% | 69.9% |  |  |  |  | 
10 | [O-][n+]1ccccc1[S-].[O-][n+]1ccccc1[S-].[Zn+2] |  |  |  |  |  | 49% | 62.7% | 64.1% | 93.1% | 98.8% | 51.1% | 16.5% | 4.2% | 0% | 0% |  |  |  |  | 
11 | CC(=O)O[C@H]1C[C@H](O[C@H]2[C@@H](O)C[C@H](O[C@H]3[C@@H](O)C[C@H](O[C@H]4CC[C@@]5(C)[C@H](CC[C@@H]6[C@@H]5C[C@@H](O)[C@]5(C)[C@@H](C7=CC(=O)OC7)CC[C@]65O)C4)O[C@@H]3C)O[C@@H]2C)O[C@H](C)[C@H]1O[C@@H]1O[C@H](CO)[C@@H](O)[C@H](O)[C@H]1O |  |  |  |  |  | 4.1% | 11.9% | 12.9% | 39.1% | 44.8% | 81.3% | 92% | 67.4% | 5.7% | 64.5% |  |  |  |  | 
12 | Cc1ncc(CNC(=O)N(CCCl)N=O)c(N)n1 [Nimustine hydrochloride] | -14.7% | 1.4% | 3.3% | 12.4% | 4.7% | 0.4% | 9% | -1.4% | 8.8% | -3% | 127% | 113% | 119% | 97% | 115% | 108% | 94.3% | 98.4% | 112% | 135%
13 | CN=C1CN(O)C(c2ccccc2)=c2cc(Cl)ccc2=N1 |  |  |  |  |  | -11.2% | -4% | -26% | 7.1% | -15.2% | 91.5% | 89.9% | 75.5% | 92.7% | 95.9% |  |  |  |  | 
14 | COc1cc2c(cc1OC)[C@H](C)NCC2 |  |  |  |  |  | -12.3% | 11.2% | 24.2% | 5.4% | 11.9% | 90.9% | 79.9% | 138% | 90.9% | 90.8% |  |  |  |  | 
15 | O=c1[nH]oc2c1CCNC2 [THIP hydrochloride] | -9.6% | -11.1% | -6.2% | -20.3% | -9.9% | 13.4% | 4% | 21.7% | 6.3% | 21.2% | 140% | 135% | 112% | 99.8% | 131% | 128% | 117% | 125% | 123% | 93.2%
16 | NCC(CC(=O)O)c1ccc(Cl)cc1 (racemic) [(±)-Baclofen] | 0% | -3.6% | 7.8% | -17.5% | -4.1% | -10% | 10.1% | 9.3% | 7% | 5.1% | 102% | 110% | 120% | 128% | 117% | 118% | 134% | 109% | 128% | 127%
17 | COc1ccc2c(c1O)-c1c(OC)c(OC)cc3c1[C@H](C2)N(C)CC3 |  |  |  |  |  | 4% | 17.7% | -0.7% | 8.8% | 3.8% | 39.4% | 72.5% | 86.6% | 47.5% | 30.9% |  |  |  |  | 
18 | CCN1C[C@]2(COC)[C@H](O)C[C@H](OC)[C@@]34[C@@H]5C[C@@]6(O)[C@H](OC(=O)c7ccccc7)[C@@H]5[C@@](OC(C)=O)([C@@H]([C@H](OC)[C@H]23)[C@@H]14)[C@@H](O)[C@@H]6OC |  |  |  |  |  | 8% | -8.5% | -12.5% | 13.5% | 5.8% | 87.3% | 99% | 78.2% | 94.1% | 148% |  |  |  |  | 
19 | Cc1ncc(C[n+]2csc(CCO)c2C)c(=O)[nH]1 |  |  |  |  |  | -1.1% | 6.1% | 0% | -2.1% | -0.8% | 99.6% | 86.8% | 98% | 137% | 102% |  |  |  |  | 
20 | CN(N)C=O |  |  |  |  |  | 1.8% | 8.3% | 8% | 4.6% | 6.1% | 79.6% | 86.7% | 117% | 116% | 90.4% |  |  |  |  | 
21 | C[C@@H]1NCCc2cc(O)c(O)cc21 |  |  |  |  |  | 6.9% | 15.5% | 8% | 25.5% | 29.5% | 127% | 120% | 98.6% | 119% | 140% |  |  |  |  | 
22 | CC(C)c1ccc2c(c1O)CC[C@H]1C3=C(CC[C@]21C)C(=O)OC3 |  |  |  |  |  | -21.3% | -23.5% | -2.2% | 16.2% | -0.7% | 69.8% | 54.5% | 57.1% | 32.1% | 21.9% |  |  |  |  | 
23 | CC(=O)Oc1ccc(/C=C/c2cc(OC(C)=O)cc(OC(C)=O)c2)cc1 |  |  |  |  |  | -8.2% | 3.2% | 1.5% | 17.6% | 19.3% | 55.6% | 88.9% | 109% | 68.9% | 87.5% |  |  |  |  | 
24 | CN1CCc2cc3c(cc2C1O)OCO3 (stereo not given) |  |  |  |  |  | 10.5% | -1.1% | 3.6% | 2.1% | 2.3% | 86.9% | 98.4% | 102% | 114% | 116% |  |  |  |  | 
25 | CCOC(=O)C1C(C=C(C)C)C1(C)C (stereo not given) |  |  |  |  |  | -10.7% | -3.2% | 0% | 14.2% | 16.3% | 138% | 104% | 116% | 154% | 105% |  |  |  |  | 
26 | C[C@@H]1CC[C@H]2[C@@H](C)C(=O)O[C@@H]3O[C@@]4(C)CC[C@@H]1[C@]32OO4 [Artemisinine] |  |  |  |  |  | 19.9% | 15.5% | 13% | -3.8% | 28% | 156% | 126% | 98.2% | 86.8% | 129% |  |  |  |  | 
27 | C[N+]12CCC(CC1)C(OC(=O)C(O)(c1ccccc1)c1ccccc1)C2 (stereo not given) |  |  |  |  |  | 5.6% | -19.3% | 4.9% | -29.7% | -8.2% | 132% | 98.3% | 111% | 119% | 100% |  |  |  |  | 
28 | COc1cc([C@@H]2c3cc4c(cc3[C@H](O)[C@H]3COC(=O)[C@H]23)OCO4)cc(OC)c1OC |  |  |  |  |  | 28.2% | 25.3% | 30.3% | 27.3% | 37.4% | 76.5% | 102% | 69.5% | 116% | 106% |  |  |  |  | 
29 | CC1CC(Cl)CCC1C(=O)OC(C)(C)C (stereo not given) |  |  |  |  |  | 3.2% | 26.4% | 21% | 10.5% | 3.8% | 81.2% | 66.5% | 104% | 100% | 124% |  |  |  |  | 

Exported as tab-separated lines: part of the list above.
Row	SMILES	loss of total cells ([1]; 1.39 µM)	loss of total cells ([1]; 2.78 µM)	loss of total cells ([1]; 5.56 µM)	loss of total cells ([1]; 11.11 µM)	loss of total cells ([1]; 22.22 µM)	loss of total cells ([2]; 1.39 µM)	loss of total cells ([2]; 2.78 µM)	loss of total cells ([2]; 5.56 µM)	loss of total cells ([2]; 11.11 µM)	loss of total cells ([2]; 22.22 µM)	synaptosome phagocytosis ([3]; 1.39 µM)	synaptosome phagocytosis ([3]; 2.78 µM)	synaptosome phagocytosis ([3]; 5.56 µM)	synaptosome phagocytosis ([3]; 11.11 µM)	synaptosome phagocytosis ([3]; 22.22 µM)	synaptosome phagocytosis ([4]; 1.39 µM)	synaptosome phagocytosis ([4]; 2.78 µM)	synaptosome phagocytosis ([4]; 5.56 µM)	synaptosome phagocytosis ([4]; 11.11 µM)	synaptosome phagocytosis ([4]; 22.22 µM)
16	NCC(CC(=O)O)c1ccc(Cl)cc1 (racemic) [(±)-Baclofen]	0%	-3.6%	7.8%	-17.5%	-4.1%	-10%	10.1%	9.3%	7%	5.1%	102%	110%	120%	128%	117%	118%	134%	109%	128%	127%
17	COc1ccc2c(c1O)-c1c(OC)c(OC)cc3c1[C@H](C2)N(C)CC3						4%	17.7%	-0.7%	8.8%	3.8%	39.4%	72.5%	86.6%	47.5%	30.9%					
18	CCN1C[C@]2(COC)[C@H](O)C[C@H](OC)[C@@]34[C@@H]5C[C@@]6(O)[C@H](OC(=O)c7ccccc7)[C@@H]5[C@@](OC(C)=O)([C@@H]([C@H](OC)[C@H]23)[C@@H]14)[C@@H](O)[C@@H]6OC						8%	-8.5%	-12.5%	13.5%	5.8%	87.3%	99%	78.2%	94.1%	148%					
19	Cc1ncc(C[n+]2csc(CCO)c2C)c(=O)[nH]1						-1.1%	6.1%	0%	-2.1%	-0.8%	99.6%	86.8%	98%	137%	102%					
20	CN(N)C=O						1.8%	8.3%	8%	4.6%	6.1%	79.6%	86.7%	117%	116%	90.4%					
21	C[C@@H]1NCCc2cc(O)c(O)cc21						6.9%	15.5%	8%	25.5%	29.5%	127%	120%	98.6%	119%	140%					
